Values from PubChem BioAssay AID504764 (Drosophila RNAi Screening Center, 2011).
Aim: 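Genes whose knock-down alters Notch-dependent transcription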 (primary screen). Cell system: Drosophila Kc167 cells. Reagent: long dsRNA against Drosophila genes. Timing: about 5 days (4 days dsRNA, then 24 h after transfection). Treatment: transfection of constitutively active membrane-tethered Notch lacking the extracellular domain, read 24 h later. Detection: 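Firefly luciferase from an E(spl)m3 reporter with active Notch, plus control-promoter and uninduced reporter wells for normalisation; unnormalised counts, duplicate wells a and b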. Reading the numbers: induced reporter light, run 1, well a and induced reporter light, run 1, well b: higher = more light from the Notch target reporter with active Notch; control promoter light, run 1, well a and control promoter light, run 1, well b: higher = more light from the viral control promoter (cell number, transfection, viability); uninduced reporter light, run 1, well a: higher = more light from the Notch target reporter without active Notch. Rule for the call: 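Hit if the duplicate-averaged log2 ratio of induced to control-promoter light gives a plate-wise z beyond ±2, or induced to uninduced beyond ±1.8; weak-control or discordant-duplicate wells dropped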. Meaning of the calls: active = modifier hit (raised or lowered Notch signal); inactive = not a hit.
The deposit covers about 22,000 reagents; shown is a random part of those with a known target gene and a result. Of all reagents, 403 (1.9%) are marked active. 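Unnormalised raw counts per well; ratio z-scores behind the hit calls and whether each hit raises or lowers signal are not deposited.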 Not stated in the record: the amount of reagent.

gene | induced reporter light, run 1, well a | induced reporter light, run 1, well b | control promoter light, run 1, well a | control promoter light, run 1, well b | uninduced reporter light, run 1, well a | activity call
CCDC151 (GeneID 39345) | 1.04e5 | 1.43e5 | 1.93e5 | 1.54e5 | 6695 | inactive
CG13855 (GeneID 42629) | 1.72e5 | 1.68e5 | 1.80e5 | 2.01e5 | 12682 | inactive
peg (GeneID 50050) | 1.95e5 | 1.56e5 | 1.97e5 | 1.98e5 | 13360 | inactive
ix (GeneID 45881) | 61810 | 49500 | 53705 | 33925 | 7770 | inactive
ppk29 (GeneID 37844) | 2.16e5 | 2.02e5 | 1.84e5 | 1.76e5 | 15870 | inactive
cher (GeneID 42066) | 2.67e5 | 2.25e5 | 2.53e5 | 3.20e5 | 19995 | inactive
rdog (GeneID 43450) | 1.89e5 | 2.27e5 | 2.46e5 | 2.91e5 | 15570 | inactive
PIG-L (GeneID 42388) | 2.32e5 | 1.85e5 | 2.10e5 | 2.21e5 | 14665 | inactive
Vps13 (GeneID 35693) | 1.99e5 | 1.57e5 | 1.97e5 | 2.17e5 | 13510 | inactive
robo1 (GeneID 37603) | 1.34e5 | 1.31e5 | 1.40e5 | 1.38e5 | 10705 | inactive
CG7140 (GeneID 40445) | 2.21e5 | 1.42e5 | 1.74e5 | 1.59e5 | 13235 | inactive
CG15042 (GeneID 32844) | 81640 | 59325 | 82390 | 70915 | 8040 | inactive

Copied from the entries so far (2 entries):
gene | induced reporter light, run 1, well a | induced reporter light, run 1, well b | control promoter light, run 1, well a | control promoter light, run 1, well b | uninduced reporter light, run 1, well a | activity call
CG7140 (GeneID 40445) | 2.21e5 | 1.42e5 | 1.74e5 | 1.59e5 | 13235 | inactive
CG15042 (GeneID 32844) | 81640 | 59325 | 82390 | 70915 | 8040 | inactive

Further reagents follow:
gene | induced reporter light, run 1, well a | induced reporter light, run 1, well b | control promoter light, run 1, well a | control promoter light, run 1, well b | uninduced reporter light, run 1, well a | activity call
mip40 (GeneID 37215) | 72140 | 87355 | 1.35e5 | 1.74e5 | 7230 | inactive
sev (GeneID 32039) | 1.34e5 | 1.20e5 | 3.18e5 | 2.70e5 | 9395 | inactive
Ythdc1 (GeneID 38420) | 1.23e5 | 1.13e5 | 94535 | 29800 | 11195 | inactive
CG17819 (GeneID 42579) | 2.14e5 | 1.81e5 | 2.00e5 | 2.02e5 | 14985 | inactive
shps (GeneID 42892) | 1.39e5 | 1.11e5 | 1.45e5 | 1.60e5 | 10732 | inactive
CG6638 (GeneID 38979) | 1.18e5 | 1.28e5 | 1.22e5 | 1.06e5 | 4265 | inactive
Urod (GeneID 35986) | 2.12e5 | 1.85e5 | 2.25e5 | 2.69e5 | 19732 | inactive
nSyb (GeneID 38196) | 1.07e5 | 78330 | 1.74e5 | 1.53e5 | 7845 | inactive
